Test results from US12263155B2, “Combinations of monoamine oxidase inhibitors and serotonin receptor agonists and their therapeutic use” (Remedi, Inc., priority 2022, dated 2025).

Assay: Exemplary administration of CX157, DMT and combinations: subjective effects
Type: in vivo
[1] = 0.03-0.07 mg/kg or 2.5-20 mg DMT freebase, 2-3 hours after 175 mg CX157
[2] = higher doses of DMT (0.2-0.6 mg/kg or 25-200 mg), 2-3 hours after 175 mg CX157

In the case of `O=S1(=O)c2ccc(F)cc2Oc2cc(OCC(F)(F)F)ccc21` [CX157, 3-fluoro-7(2,2,2-trifluorethoxy)phenoxathiine-10,10-dioxide], the subjective effects (175 mg CX157 alone, 2.5 hours after administration) is reported as “No subjective effects”.
In the case of `CN(C)CCc1c[nH]c2ccccc12` [DMT, N,N-dimethyltryptamine], the “duration of smooth, steady, calm energy” value [1] is reported as “around 6 hours”, the “onset of subjective effects” value [1] is reported as “around one hour” and the “total duration of subjective effects” value [1] is reported as “around 8 hours”. The subjective effects (25-100 mg DMT freebase in capsule alone, over 1 hour) was “No subjective effects”, the “onset of psychedelic effects” value [2] was “around 40 minutes” and the “total duration of psychedelic effects” value [2] was “around 2 hours”.
